PubChem BioAssay AID1259424 | University of Nebraska Medical Center – 2018
This is one part, drawn at random, of about 14,000 deposited reagents. 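Higher correlation or smaller distance means closer resemblance to KSR1 loss; control wells, including KSR1 knockdowns, recur on many plates.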 Not all columns of the deposit are shown. Not stated in the record: the time to read-out.

Aim: 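Rank knockdowns across the genome by resemblance to the KSR1 depletion profile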 (primary screen)
Cell system: human HCT116 colon cancer cells
Reagents: siRNA pool against human genes, 50 nM
Measured: 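Six signature mRNAs by branched-DNA multiplex assay, scaled to two housekeeping genes and non-targeting median, log2; matched to mean KSR1 knockdown profile by Pearson correlation and euclidean distance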
Direction: mean correlation with KSR1 profile: higher = expression change more like KSR1 knockdown; mean distance from KSR1 profile: higher = expression change less like KSR1 knockdown

For PLPPR1 (GeneID 54886), how do the results read?
mean correlation with KSR1 profile: -0.123; mean distance from KSR1 profile: 2.74

For ACTB (GeneID 60), what was measured?
mean correlation with KSR1 profile: -0.717; mean distance from KSR1 profile: 2.57

Which result is listed for RUBCNL (GeneID 80183)?
mean correlation with KSR1 profile: 0.339; mean distance from KSR1 profile: 2.42

For IFT122 (GeneID 55764), how do the results read?
mean correlation with KSR1 profile: 0.212; mean distance from KSR1 profile: 2.87

With SLC22A8 (GeneID 9376), what was measured?
mean correlation with KSR1 profile: -0.102; mean distance from KSR1 profile: 1.58

With SPRR3 (GeneID 6707), how do the results read?
mean correlation with KSR1 profile: -0.594; mean distance from KSR1 profile: 2.8

With WNT6 (GeneID 7475), what does the deposit list?
mean correlation with KSR1 profile: -0.302; mean distance from KSR1 profile: 2.56

With EPHB6 (GeneID 2051), what does the deposit list?
mean correlation with KSR1 profile: 0.338; mean distance from KSR1 profile: 3.64

For SIKE1 (GeneID 80143), what was measured?
mean correlation with KSR1 profile: -0.0678; mean distance from KSR1 profile: 2.17

What did the screen give for STKLD1 (GeneID 169436)?
mean correlation with KSR1 profile: 0.487; mean distance from KSR1 profile: 2.81

What is on record for POGLUT2 (GeneID 79070)?
mean correlation with KSR1 profile: 0.524; mean distance from KSR1 profile: 1.01

What did the screen give for CTNNA3 (GeneID 29119)?
mean correlation with KSR1 profile: -0.623; mean distance from KSR1 profile: 3.04

What did the screen give for ADORA3 (GeneID 140)?
mean correlation with KSR1 profile: 0.797; mean distance from KSR1 profile: 1.35

2 entries from above in another layout:
| gene | mean correlation with KSR1 profile | mean distance from KSR1 profile |
| --- | --- | --- |
| POGLUT2 (GeneID 79070) | 0.524 | 1.01 |
| CTNNA3 (GeneID 29119) | -0.623 | 3.04 |

Further records:
With MINK1 (GeneID 50488), what was measured?
mean correlation with KSR1 profile: 0.311; mean distance from KSR1 profile: 2.5

For MOGS (GeneID 7841), how do the results read?
mean correlation with KSR1 profile: -0.00944; mean distance from KSR1 profile: 2.82

How did the screen score C1orf94 (GeneID 84970)?
mean correlation with KSR1 profile: 0.636; mean distance from KSR1 profile: 4.75

With MGAT4A (GeneID 11320), how do the results read?
mean correlation with KSR1 profile: -0.0529; mean distance from KSR1 profile: 1.49

What did the screen give for CCL21 (GeneID 6366)?
mean correlation with KSR1 profile: 0.152; mean distance from KSR1 profile: 1.51

With TRIT1 (GeneID 54802), what does the deposit list?
mean correlation with KSR1 profile: 0.0018; mean distance from KSR1 profile: 2.32

For COA8 (GeneID 84334), what does the deposit list?
mean correlation with KSR1 profile: 0.803; mean distance from KSR1 profile: 0.93

What is on record for GYPE (GeneID 2996)?
mean correlation with KSR1 profile: -0.441; mean distance from KSR1 profile: 2.04

How did the screen score CTSG (GeneID 1511)?
mean correlation with KSR1 profile: 0.0471; mean distance from KSR1 profile: 2.28

For CDKN1C (GeneID 1028), what was measured?
mean correlation with KSR1 profile: 0.555; mean distance from KSR1 profile: 1.36

What did the screen give for TNNI1 (GeneID 7135)?
mean correlation with KSR1 profile: 0.605; mean distance from KSR1 profile: 1.51

What did the screen give for DNAJB2 (GeneID 3300)?
mean correlation with KSR1 profile: -0.386; mean distance from KSR1 profile: 1.6

For ACACA (GeneID 31), what was measured?
mean correlation with KSR1 profile: -0.175; mean distance from KSR1 profile: 3.81

With CBR4 (GeneID 84869), what was measured?
mean correlation with KSR1 profile: 0.354; mean distance from KSR1 profile: 2.03

Which result is listed for GPR52 (GeneID 9293)?
mean correlation with KSR1 profile: 0.61; mean distance from KSR1 profile: 2.41
